Measurements taken from paper PMC4014704, “β-Boomerang Antimicrobial and Antiendotoxic Peptides: Lipidation and Disulfide Bond Effects on Activity and Structure” (Pharmaceuticals, 2014).

Key:
[1] = Intrinsic tryptophan fluorescence and acrylamide quenching, free peptide; type: physicochemical; conditions: for Intrinsic tryptophan emission maxima λmax, Free: 5 μM peptide, 10 mM sodium phosphate buffer, excitation 280 nm; for Stern-Volmer constant (Ksv), Free: acrylamide quenching of Trp, free peptide in buffer
LPS micelles [2] = test: Intrinsic tryptophan fluorescence and acrylamide quenching in LPS; type: binding, E. coli 0111:B4; conditions: for Intrinsic tryptophan emission maxima λmax, LPS: 5 μM peptide with LPS micelles, excitation 280 nm; for Stern-Volmer constant (Ksv), LPS: acrylamide quenching of Trp, peptide/LPS complex
DPC micelles = test: Intrinsic tryptophan fluorescence and acrylamide quenching in DPC; type: binding; conditions: for Intrinsic tryptophan emission maxima λmax, DPC: 5 μM peptide with DPC micelles, excitation 280 nm; for Stern-Volmer constant (Ksv), DPC: acrylamide quenching of Trp, peptide/DPC complex
LPS micelles [3] = test: Isothermal titration calorimetry; type: binding, E. coli 0111:B4; conditions: ITC; for ΔH: 10 μM LPS, pH 7.0, 25 °C; for TΔS / ΔG: 25 °C; for TΔS: TΔS = (ΔH − ΔG); for ΔG: ΔG = −RTlnKa
Experimental: Isothermal titration calorimetry: Binding of designed peptides with LPS micelles was determined using isothermal titration calorimetry in VP-ITC micro calorimeter (Microcal Inc, Northampton, MA, USA). Peptides and LPS samples were dissolved in 10 mM phosphate buffer, pH 7.0 and filtered. LPS at a concentration of 10 μM was loaded into the sample cell and the reference cell was filled with the same buffer. The syringe was filled with 1mM peptide solution. Typically 30 injections of 3.5 μL of the peptides were made into the sample cell at 25 °C. Sample cell was stirred continuously at 300 rpm. Raw data were obtained and analyzed using single site binding model in Microcal Origin 5.0 software. Association constant (Ka) and enthalpy change (ΔH) were directly determined from ITC profiles. Dissociation constant was calculated from Kd = 1/Ka. ΔG and TΔS were estimated from the fundamental equations of thermodynamics, ΔG = −RTlnKa and TΔS = (ΔH − ΔG), respectively.

SMILES	Intrinsic tryptophan emission maxima λmax, Free [1] [nm]	Stern-Volmer constant (Ksv), Free [1]	Intrinsic tryptophan emission maxima λmax, LPS (LPS micelles [2]) [nm]	Stern-Volmer constant (Ksv), LPS (LPS micelles [2])	Intrinsic tryptophan emission maxima λmax, DPC (DPC micelles) [nm]	Stern-Volmer constant (Ksv), DPC (DPC micelles)	ΔH (LPS micelles [3]) [kcal/mol]	TΔS (LPS micelles [3]) [kcal.mol^−1deg^−1]	ΔG (LPS micelles [3]) [kcal/mol]
CCCC(=O)N[C@@H](Cc1ccc(O)cc1)C(=O)N[C@H](C(=O)N[C@@H](CC(C)C)C(=O)N[C@@H](Cc1c[nH]c2ccccc12)C(=O)N[C@@H](CCCCN)C(=O)N[C@@H](CCCNC(=N)N)C(=O)N[C@@H](CCCCN)C(=O)N[C@@H](CCCNC(=N)N)C(=O)N[C@@H](CCCCN)C(=O)N[C@@H](Cc1ccccc1)C(=O)N[C@@H](CSSC[C@H](NC(=O)[C@H](Cc1ccccc1)NC(=O)[C@H](CCCCN)NC(=O)[C@H](CCCNC(=N)N)NC(=O)[C@H](CCCCN)NC(=O)[C@H](CCCNC(=N)N)NC(=O)[C@H](CCCCN)NC(=O)[C@H](Cc1c[nH]c2ccccc12)NC(=O)[C@H](CC(C)C)NC(=O)[C@@H](NC(=O)[C@H](Cc1ccc(O)cc1)NC(=O)CCC)C(C)C)C(=O)N[C@@H](Cc1ccccc1)C(=O)N[C@H](C(N)=O)[C@@H](C)CC)C(=O)N[C@@H](Cc1ccccc1)C(=O)N[C@H](C(N)=O)[C@@H](C)CC)C(C)C [C4YI13C] (HELM PEPTIDE1{[CCCC(=O)[*:2]].Y.V.L.W.K.R.K.R.K.F.C.F.I.[am]}|PEPTIDE2{[CCCC(=O)[*:2]].Y.V.L.W.K.R.K.R.K.F.C.F.I.[am]}$PEPTIDE1,PEPTIDE2,12:R3-12:R3$$$V2.0)	358	37.9	338	5.8	348	11.3	3.0	11.6	-8.6
CCCCCCCC(=O)N[C@@H](Cc1ccc(O)cc1)C(=O)N[C@H](C(=O)N[C@@H](CC(C)C)C(=O)N[C@@H](Cc1c[nH]c2ccccc12)C(=O)N[C@@H](CCCCN)C(=O)N[C@@H](CCCNC(=N)N)C(=O)N[C@@H](CCCCN)C(=O)N[C@@H](CCCNC(=N)N)C(=O)N[C@@H](CCCCN)C(=O)N[C@@H](Cc1ccccc1)C(=O)N[C@@H](CSSC[C@H](NC(=O)[C@H](Cc1ccccc1)NC(=O)[C@H](CCCCN)NC(=O)[C@H](CCCNC(=N)N)NC(=O)[C@H](CCCCN)NC(=O)[C@H](CCCNC(=N)N)NC(=O)[C@H](CCCCN)NC(=O)[C@H](Cc1c[nH]c2ccccc12)NC(=O)[C@H](CC(C)C)NC(=O)[C@@H](NC(=O)[C@H](Cc1ccc(O)cc1)NC(=O)CCCCCCC)C(C)C)C(=O)N[C@@H](Cc1ccccc1)C(=O)N[C@H](C(N)=O)[C@@H](C)CC)C(=O)N[C@@H](Cc1ccccc1)C(=O)N[C@H](C(N)=O)[C@@H](C)CC)C(C)C [C8YI13C] (HELM PEPTIDE1{[CCCCCCCC(=O)[*:2]].Y.V.L.W.K.R.K.R.K.F.C.F.I.[am]}|PEPTIDE2{[CCCCCCCC(=O)[*:2]].Y.V.L.W.K.R.K.R.K.F.C.F.I.[am]}$PEPTIDE1,PEPTIDE2,12:R3-12:R3$$$V2.0)	356	23.3	334	5.0	344	11.2	–	–	–
CC[C@H](C)[C@H](NC(=O)[C@H](Cc1ccccc1)NC(=O)[C@H](CSSC[C@H](NC(=O)[C@H](Cc1ccccc1)NC(=O)[C@H](CCCCN)NC(=O)[C@H](CCCNC(=N)N)NC(=O)[C@H](CCCCN)NC(=O)[C@H](CCCNC(=N)N)NC(=O)[C@H](CCCCN)NC(=O)[C@H](Cc1c[nH]c2ccccc12)NC(=O)[C@H](CC(C)C)NC(=O)[C@@H](NC(=O)[C@@H](N)Cc1ccc(O)cc1)C(C)C)C(=O)N[C@@H](Cc1ccccc1)C(=O)N[C@H](C(N)=O)[C@@H](C)CC)NC(=O)[C@H](Cc1ccccc1)NC(=O)[C@H](CCCCN)NC(=O)[C@H](CCCNC(=N)N)NC(=O)[C@H](CCCCN)NC(=O)[C@H](CCCNC(=N)N)NC(=O)[C@H](CCCCN)NC(=O)[C@H](Cc1c[nH]c2ccccc12)NC(=O)[C@H](CC(C)C)NC(=O)[C@@H](NC(=O)[C@@H](N)Cc1ccc(O)cc1)C(C)C)C(N)=O [YI13C] (HELM PEPTIDE1{Y.V.L.W.K.R.K.R.K.F.C.F.I.[am]}|PEPTIDE2{Y.V.L.W.K.R.K.R.K.F.C.F.I.[am]}$PEPTIDE1,PEPTIDE2,11:R3-11:R3$$$V2.0)	356	43.1	339	6.0	354	11.1	4.6	13.6	-9.03

Peptide text beside a SMILES is read from it.
